# Paper PMC2666730, “HMGB1/2 can target DNA for illegitimate cleavage by the RAG1/2 complex”
# For at least one entry, the source does not settle the construct or the ends of the probe. A weaker result is weaker than the reference pair of the same experiment.
# System: cMR1 (core RAG1, MBP fusion) + cMR2 (core RAG2, MBP fusion)
# Experiment: competition with a labelled probe
# Details: cold competitor against labeled 23-RSS, with or without HMGB1, summarized as within ~2-fold of 23-RSS; binding buffer; recombinant protein; protein details: N-terminal MBP,N-terminal MBP; label: 5' radiolabel, top strand, unlabeled as competitor
sequence,measurement,value
TCCCCGAAAAGTGCCACCTGACGTCTAAGAAACCATTATTATCATGACATTAACCTATAAA (double strand) [bps6197],binding result,binds more weakly
